In the supplement of paper PMC10373366:
Some of the results follow. Single values are uncertain, as repeats are few or missing.

Key:
[1] = system: A2780; assay: cell growth inhibition ratio vs untreated control (CCK8); higher = stronger inhibition of cell viability; conditions: 10 µM; 48 h
Procedure: (§1)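 Natural product library (Topscience) screened at 10 µM final concentration for 48 h on ovarian cancer A2780 cells and patient-derived ovarian cancer cells (PDC) in 96-well plates; viability read by CCK8 and reported as inhibition ratio (%) relative to untreated control. Single-dose primary screen.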

[2] = system: patient-derived ovarian cancer cells (PDC); assay: as above; conditions: 10 µM; 48 h
Procedure: as §1

SMILES	cell growth inhibition ratio [1]	cell growth inhibition ratio [2]
COc1ccc(C[C@H]2COC(=O)[C@@H]2Cc2ccc(O[C@@H]3O[C@H](CO)[C@@H](O)[C@H](O)[C@H]3O)c(OC)c2)cc1OC [Arctiin]	40.3%	-9.82%
O=C1C[C@@H](c2ccccc2)Oc2cc(O)cc(O)c21 [Pinocembrin]	25.9%	5.32%
OC[C@H]1O[C@H](OC[C@H]2O[C@H](OC[C@H]3O[C@H](O[C@]4(CO)O[C@H](CO)[C@@H](O)[C@@H]4O)[C@H](O)[C@@H](O)[C@@H]3O)[C@H](O)[C@@H](O)[C@H]2O)[C@H](O)[C@@H](O)[C@H]1O [D-Stachyose tetrahydrate]	1.85%	-13.1%
Oc1cc(O)cc(/C=C/c2ccc(O)c(O)c2)c1 [Piceatannol]	16.2%	-13.7%
C=C1C(=O)O[C@@H]2C[C@@]3(C)CCC[C@H](C)C3=C[C@H]12 [Helenine]	9.56%	29.2%
CC(C)[C@@H](C)/C=C/[C@@H](C)[C@H]1CC[C@H]2C3=CC=C4C[C@@H](O)CC[C@]4(C)[C@H]3CC[C@]12C [Ergosterol]	4.39%	3.83%
O=C1C=C(O)c2ccccc2C1=O [Lawsone]	11.6%	9.91%
COC(=O)C1=CO[C@@H](O[C@@H]2O[C@H](CO)[C@@H](O)[C@H](O)[C@H]2O)[C@H]2[C@@H]1C(=O)C[C@@H]2C	5.6%	-8.15%
O=c1cc(-c2ccccc2)oc2cc(O)cc(O)c12 [Chrysin]	1.14%	-13.7%
Cc1ncc(CSSCc2cnc(C)c(O)c2CO)c(CO)c1O [Pyrithioxin]	-4.82%	-11.6%
O=C(CCc1ccc(O)cc1)c1c(O)cc(O)cc1O[C@@H]1O[C@H](CO)[C@@H](O)[C@H](O)[C@H]1O [Phlorizin]	6.3%	7.37%
OC[C@H]1O[C@H](O[C@H]2[C@H](O)[C@@H](O)[C@H](O)O[C@@H]2CO)[C@H](O)[C@@H](O)[C@@H]1O [Maltose]	1.35%	3.18%
C=C[C@@]1(C)CC(=O)[C@]2(O)[C@@]3(C)[C@@H](O)CCC(C)(C)[C@@H]3[C@H](O)[C@H](OC(C)=O)[C@@]2(C)O1 [Forskolin]	-22.9%	6.7%
C[C@@H]1O[C@@H](O[C@@H]2[C@@H](O)[C@H](O)[C@@H](CO)O[C@H]2c2c(O)cc(O)c3c(=O)cc(-c4ccc(O)cc4)oc23)[C@H](O)[C@H](O)[C@H]1O [Vitexin-2''-O-rhamnoside]	-1.18%	8.29%
C[C@@H]1O[C@@H](O[C@@H]2[C@@H](O)[C@H](OCCc3ccc(O)c(O)c3)O[C@H](COC(=O)/C=C/c3ccc(O)c(O)c3)[C@H]2O)[C@H](O)[C@H](O)[C@H]1O [Isoacteoside]	6%	-8.64%
Cc1cc2nc3c(=O)[nH]c(=O)nc-3n(C[C@H](O)[C@H](O)[C@H](O)COP(=O)(O)O)c2cc1C [Flavin mononucleotide]	1.53%	-9.28%
COc1ccc(-c2oc3c(CC=C(C)C)c(O[C@@H]4O[C@H](CO)[C@@H](O)[C@H](O)[C@H]4O)cc(O)c3c(=O)c2O)cc1 [Icariside I]	38.6%	-2.4%
O=c1c2cc(O[C@@H]3O[C@H](CO)[C@@H](O)[C@H](O)[C@H]3O)c(O)cc2oc2cc(O)c([C@@H]3O[C@H](CO)[C@@H](O)[C@H](O)[C@H]3O)c(O)c12 [Neomangiferin]	16.4%	-6.66%
Cc1cc(=O)oc2cc(O)ccc12 [4-Methylumbelliferone (4-MU)]	13.6%	3.31%
CC(C)(CO)[C@@H](O)C(=O)NCCC(=O)NCCSSCCNC(=O)CCNC(=O)[C@H](O)C(C)(C)CO [D-Pantethine]	16.7%	-1.68%
C=CCc1ccc(O)c(OC)c1 [Eugenol]	9.3%	4.1%
C[C@@H]1[C@H](O)[C@@H](C)/C=C/C=C/C=C/C=C/C=C/C=C/C=C/[C@H](O[C@@H]2O[C@H](C)[C@@H](O)[C@H](N)[C@@H]2O)C[C@@H]2O[C@](O)(C[C@@H](O)C[C@@H](O)[C@H](O)CC[C@@H](O)C[C@@H](O)CC(=O)O[C@H]1C)C[C@H](O)[C@H]2C(=O)O [Amphotericin B]	-8.5%	6.09%
c1coc(CNc2ncnc3[nH]cnc23)c1 [Kinetin]	2.22%	-1.35%
CC(C)=CCC/C(C)=C/CC/C(C)=C/CC/C(C)=C/CC1=C(C)C(=O)c2ccccc2C1=O [Menatetrenone]	10.3%	3.04%

Part of the list above, bar-delimited.
SMILES | cell growth inhibition ratio [1] | cell growth inhibition ratio [2]
Oc1cc(O)cc(/C=C/c2ccc(O)c(O)c2)c1 [Piceatannol] | 16.2% | -13.7%
C=C1C(=O)O[C@@H]2C[C@@]3(C)CCC[C@H](C)C3=C[C@H]12 [Helenine] | 9.56% | 29.2%
